Experimental data from PMC11432330, “Novel Drug-like HsrA Inhibitors Exhibit Potent Narrow-Spectrum Antimicrobial Activities against Helicobacter pylori” (International Journal of Molecular Sciences, 2024).
The source gives many values for each of these; only a part stands here.

System: H. pylori 26695
Experiment: In vivo inhibition of HsrA: RNA-Seq transcriptomic analysis of exposed cells
Assay type: cell-based, Helicobacter pylori
Procedure: Bacterial growth from three blood agar plates of H. pylori ATCC 700392 (aka 26695) incubated for 48 h at 37 °C under microaerobic conditions was aseptically resuspended in BHI + FBS and adjusted to 10^7 CFU/mL. BHI broth cultures were incubated microaerobically at 37 °C for 24 h. […] At this time, bacterial growth was stopped by adding 1.5 mL ice-cold RNA stop solution (95% absolute ethanol, 5% acid-buffered phenol) and subsequently incubated on ice. Control samples were exposed to the same amount of DMSO instead of the inhibitor. Helicobacter cells from all samples were harvested by centrifugation (4000 rpm at 4 °C for 10 min), then the pellets were quickly frozen by immersion in liquid nitrogen and stored at −80 °C.
RNA-Seq analysis was performed by GENEWIZ (Azenta Life Sciences, Leipzig, Germany). Frozen cell pellets from two biological replicates of each treatment condition were properly submitted to GENEWIZ in dry ice. RNA-Seq libraries were prepared according to standard protocols via rRNA depletion, RNA fragmentation and random priming, reverse transcription, 5’-phosphorylation and dA-tailing of cDNAs, adaptor ligation, and PCR enrichment. Once the quality of each library was confirmed, they were sequenced on an Illumina NovaSeq 6000 (Illumina, San Diego, CA, USA) with 150-bp paired-ends. Raw sequence reads were filtered to remove possible adapter sequences and nucleotides with poor quality using Trimmomatic v.0.36 [105]. The trimmed reads were subsequently mapped to the H. pylori strain 26695 reference genome NC_000915.1 available on NCBI, by using the Bowtie2 aligner v.2.2.6 [106]. Unique gene hit counts were calculated by using featureCounts from the Subread package v.1.5.2. Only unique reads that fell within the gene regions were counted. Using DESeq2 [108], a comparison of the gene expression between the control and treated groups of samples was performed. The Wald test was used to generate p-values and log2 fold changes. Genes with an adjusted p-value < 0.05 and absolute log2 fold change >1 were considered as differentially expressed genes (DEGs) for each comparison. The RNA-Seq data generated in this study have been deposited in ArrayExpress with the accession number E-MTAB-14255.

NC(=NOC(=O)Nc1ccc(Cl)cc1)c1csc([N+](=O)[O-])c1 [Ligand V, N′-{[(4-chloroanilino)carbonyl]}oxy-5-nitrothiophene-3-carboximidamide]
log2 Fold Change (gene HP0731, exposed to lethal concentrations of V vs control): 0.920 | log2 Fold Change (gene HP0735, exposed to lethal concentration of V vs control): -1.192 | log2 Fold Change (gene HP0736, exposed to lethal concentration of V vs control): -0.931 | log2 Fold Change (gene HP0739, exposed to lethal concentrations vs control): -0.821 | log2 Fold Change (gene HP0740, exposed to lethal concentrations vs control): -0.841 | log2 Fold Change (gene HP0745, exposed to lethal concentrations of V vs control): 0.502 | log2 Fold Change (gene HP0746, exposed to lethal concentrations vs control): 1.099 | log2 Fold Change (gene HP0749, exposed to lethal concentrations vs control): 0.00638 | log2 Fold Change (gene HP0751, exposed to lethal concentrations vs control): 1.659 | log2 Fold Change (gene HP0754, exposed to lethal concentrations vs control): 0.003 | log2 Fold Change (gene HP0756, exposed to lethal concentration of V vs control): -1.508 | log2 Fold Change (gene HP0757, exposed to lethal concentrations vs control): -0.808 | log2 Fold Change (gene HP0761, exposed to lethal concentrations of V vs control): 1.008 | log2 Fold Change (gene HP0762, exposed to lethal concentrations vs control): -0.814 | log2 Fold Change (gene HP0764, exposed to lethal concentrations vs control): -0.017 | log2 Fold Change (gene HP0766, exposed to lethal concentrations vs control): 0.062 | log2 Fold Change (gene HP0769, exposed to lethal concentration of V vs control): -1.026 | log2 Fold Change (gene HP0771, exposed to lethal concentrations vs control): -0.751 | log2 Fold Change (gene HP0774, exposed to lethal concentrations vs control): 1.045 | log2 Fold Change (gene HP0775, exposed to lethal concentrations vs control): -0.806 | log2 Fold Change (gene HP0778, exposed to lethal concentrations of V vs control): 0.583 | log2 Fold Change (gene HP0779, exposed to lethal concentrations vs control): 2.039 | log2 Fold Change (gene HP0780, exposed to lethal concentrations vs control): 1.122 | log2 Fold Change (gene HP0781, exposed to lethal concentrations vs control): 0.042 | log2 Fold Change (gene HP0783, exposed to lethal concentrations of V vs control): 0.691 | log2 Fold Change (gene HP0788, exposed to lethal concentrations vs control): 1.185 | log2 Fold Change (gene HP0789, exposed to lethal concentrations of V vs control): 0.783 | log2 Fold Change (gene HP0790, exposed to lethal concentrations vs control): -0.057 | log2 Fold Change (gene HP0792, exposed to lethal concentrations vs control): -0.741 | log2 Fold Change (gene HP0797, exposed to lethal concentrations vs control): 0.043 | log2 Fold Change (gene HP0800, exposed to lethal concentrations vs control): 0.087 | log2 Fold Change (gene HP0801, exposed to lethal concentrations vs control): -0.747 | log2 Fold Change (gene HP0804, exposed to lethal concentrations vs control): -0.038 | log2 Fold Change (gene HP0806, exposed to lethal concentrations vs control): 0.068 | log2 Fold Change (gene HP0807, exposed to lethal concentrations vs control): -0.088 | log2 Fold Change (gene HP0812, exposed to lethal concentrations vs control): 1.465 | log2 Fold Change (gene HP0813, exposed to lethal concentrations vs control): 0.054 | log2 Fold Change (gene HP0814, exposed to lethal concentrations vs control): 0.030 | log2 Fold Change (gene HP0815, exposed to lethal concentrations of V vs control): 0.716 | log2 Fold Change (gene HP0817, exposed to lethal concentrations of V vs control): 0.632 | log2 Fold Change (gene HP0818, exposed to lethal concentrations vs control): 1.097 | log2 Fold Change (gene HP0819a, exposed to lethal concentrations vs control): -0.056 | log2 Fold Change (gene HP0822, exposed to lethal concentrations of V vs control): 0.980 | log2 Fold Change (gene HP0825, exposed to lethal concentrations vs control): 0.060 | log2 Fold Change (gene HP0826, exposed to lethal concentrations vs control): -0.022 | log2 Fold Change (gene HP0827, exposed to lethal concentration of V vs control): -2.426 | log2 Fold Change (gene HP0828, exposed to lethal concentration of V vs control): -1.081 | log2 Fold Change (gene HP0829, exposed to lethal concentrations of V vs control): 0.706 | log2 Fold Change (gene HP0835, exposed to lethal concentration of V vs control): -0.933 | log2 Fold Change (gene HP0838, exposed to lethal concentration of V vs control): -0.956 | log2 Fold Change (gene HP0841, exposed to lethal concentrations vs control): -0.634 | log2 Fold Change (gene HP0842, exposed to lethal concentration of V vs control): -0.958 | log2 Fold Change (gene HP0844, exposed to lethal concentrations vs control): 1.194 | log2 Fold Change (gene HP0845, exposed to lethal concentrations vs control): 1.292 | log2 Fold Change (gene HP0846, exposed to lethal concentrations of V vs control): 0.717 | log2 Fold Change (gene HP0848, exposed to lethal concentrations vs control): -0.011 | log2 Fold Change (gene HP0849, exposed to lethal concentrations of V vs control): 0.921 | log2 Fold Change (gene HP0850, exposed to lethal concentrations of V vs control): 0.610 | log2 Fold Change (gene HP0851, exposed to lethal concentrations vs control): -0.758 | log2 Fold Change (gene HP0852, exposed to lethal concentrations of V vs control): 0.640 | log2 Fold Change (gene HP0853, exposed to lethal concentrations vs control): -0.063 | log2 Fold Change (gene HP0854, exposed to lethal concentrations vs control): -0.00249 | log2 Fold Change (gene HP0855, exposed to lethal concentration of V vs control): -1.352 | log2 Fold Change (gene HP0856, exposed to lethal concentrations vs control): -0.715 | log2 Fold Change (gene HP0857, exposed to lethal concentrations vs control): -0.012 | log2 Fold Change (gene HP0860, exposed to lethal concentrations vs control): -0.773 | log2 Fold Change (gene HP0868, exposed to lethal concentrations vs control): 0.013 | log2 Fold Change (gene HP0871, exposed to lethal concentrations vs control): 2.529 | log2 Fold Change (gene HP0873, exposed to lethal concentrations of V vs control): 0.575 | log2 Fold Change (gene HP0874, exposed to lethal concentrations vs control): 1.111 | log2 Fold Change (gene HP0875, exposed to lethal concentrations vs control): 1.638 | log2 Fold Change (gene HP0876, exposed to lethal concentrations of V vs control): 0.812 | log2 Fold Change (gene HP0878, exposed to lethal concentrations of V vs control): 0.545 | log2 Fold Change (gene HP0879, exposed to lethal concentrations of V vs control): 0.771 | log2 Fold Change (gene HP0880, exposed to lethal concentrations vs control): -0.109 | log2 Fold Change (gene HP0881, exposed to lethal concentrations of V vs control): 0.555 | log2 Fold Change (gene HP0884, exposed to lethal concentrations of V vs control): 0.646 | log2 Fold Change (gene HP0887, exposed to lethal concentrations vs control): -0.678 | log2 Fold Change (gene HP0892, exposed to lethal concentrations vs control): 0.096 | log2 Fold Change (gene HP0894, exposed to lethal concentrations vs control): -0.045 | log2 Fold Change (gene HP0895, exposed to lethal concentrations of V vs control): 0.816 | log2 Fold Change (gene HP0896, exposed to lethal concentrations vs control): 1.163 | log2 Fold Change (gene HP0899, exposed to lethal concentrations of V vs control): 0.861 | log2 Fold Change (gene HP0901, exposed to lethal concentrations vs control): -0.094 | log2 Fold Change (gene HP0902, exposed to lethal concentrations vs control): 0.058 | log2 Fold Change (gene HP0906, exposed to lethal concentrations vs control): -0.102 | log2 Fold Change (gene HP0910, exposed to lethal concentrations vs control): 0.076 | log2 Fold Change (gene HP0911, exposed to lethal concentrations vs control): 0.00146 | log2 Fold Change (gene HP0913, exposed to lethal concentrations vs control): 0.114 | log2 Fold Change (gene HP0914, exposed to lethal concentrations of V vs control): 0.683 | log2 Fold Change (gene HP0918, exposed to lethal concentrations vs control): 0.035 | log2 Fold Change (gene HP0920, exposed to lethal concentrations of V vs control): 0.774 | log2 Fold Change (gene HP0922, exposed to lethal concentrations of V vs control): 0.777 | log2 Fold Change (gene HP0923, exposed to lethal concentrations vs control): -0.057 | log2 Fold Change (gene HP0927, exposed to lethal concentrations of V vs control): 0.516 | log2 Fold Change (gene HP0933, exposed to lethal concentrations vs control): -0.103 | log2 Fold Change (gene HP0934, exposed to lethal concentration of V vs control): -1.089 | log2 Fold Change (gene HP0940, exposed to lethal concentrations vs control): -0.017 | log2 Fold Change (gene HP0941, exposed to lethal concentrations of V vs control): 0.594 | log2 Fold Change (gene HP0942, exposed to lethal concentrations vs control): 1.233 | log2 Fold Change (gene HP0943, exposed to lethal concentrations vs control): 2.241 | log2 Fold Change (gene HP0944, exposed to lethal concentrations vs control): 1.497 | log2 Fold Change (gene HP0944a, exposed to lethal concentrations vs control): 0.130 | log2 Fold Change (gene HP0947, exposed to lethal concentrations vs control): 0.145 | log2 Fold Change (gene HP0950, exposed to lethal concentrations of V vs control): 0.641 | log2 Fold Change (gene HP0951, exposed to lethal concentrations vs control): -0.014 | log2 Fold Change (gene HP0956, exposed to lethal concentration of V vs control): -1.094 | log2 Fold Change (gene HP0957, exposed to lethal concentration of V vs control): -0.904 | log2 Fold Change (gene HP0958, exposed to lethal concentrations vs control): -0.863 | log2 Fold Change (gene HP0959, exposed to lethal concentrations of V vs control): 0.722 | log2 Fold Change (gene HP0964, exposed to lethal concentrations of V vs control): 0.560 | log2 Fold Change (gene HP0965, exposed to lethal concentrations of V vs control): 0.566 | log2 Fold Change (gene HP0966, exposed to lethal concentrations vs control): 0.078 | log2 Fold Change (gene HP0970, exposed to lethal concentrations vs control): -0.683 | log2 Fold Change (gene HP0971, exposed to lethal concentration of V vs control): -1.088 | log2 Fold Change (gene HP0973, exposed to lethal concentrations vs control): 0.095 | log2 Fold Change (gene HP0974, exposed to lethal concentrations vs control): 0.052 | log2 Fold Change (gene HP0977, exposed to lethal concentration of V vs control): -0.962 | log2 Fold Change (gene HP0978, exposed to lethal concentrations vs control): 0.116 | log2 Fold Change (gene HP0979, exposed to lethal concentrations of V vs control): 0.480
